## Library screening results

The values are deposited in ChEMBL (CHEMBL3988442, “University of Dundee, Small-Polar-MMV Screening Library” (2021)).

Mtb growth Cornell: 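Whole-cell assay for inhibitors of Mycobacterium tuberculosis growth, labelled Cornell in the record; the read-out is not stated. The concentration is filed as 10 mM, unlikely as a test dose, so the dose is not known. The record gives no direction; compounds strong in two other growth screens of this library score well above the rest, so higher reads as stronger inhibition. About 53,000 compounds were tested under these conditions; 1.7% (about 900) showed 50% or more at least once.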
Mtb heat-shock: 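Assay on Mycobacterium tuberculosis, filed only as a heat shock assay from Cornell; the read-out is not stated. The concentration is filed as 10 mM, unlikely as a test dose, so the dose is not known. Higher reads as stronger inhibition (inferred: compounds with an IC50 in retests scored well above the rest). Size under these conditions: about 69,000 compounds, about 930 of them at 50% or above in at least one test.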

Each number is a percent effect as filed.
The record does not define 0% and 100%; most values in the screen are far below 50% and negative numbers occur (in some assays of this library far below -100).
Compounds were drawn at random from those tested, without regard to their results.
A dash means the value is not listed here; it may have been measured.

structure,Mtb growth Cornell,Mtb heat-shock
Cc1cc(C)n(C2CCN(c3ncnc4sc5c(c34)CCNC5)C2)n1 (stereo not given),11.06%,-20.26%
COc1ccnc(N2CCC(=O)N(CC3CC3)C(C(C)C)C2)n1 (stereo not given),7.668%,-29.84%
CC(=O)NCCCNCc1c(C)nn(CC(C)C)c1N(C)C,2.619%,9.275%
CC1=NOC2(CCN(Cc3c[nH]c4ccccc34)CC2)C1,-,-1.742%
COc1cccc(/C=C/CCN2CCCN(C(C)=O)CC2)c1,68.14%,-8.172%
CC(Cc1ccccc1F)C(=O)Nc1cccc(OCC(N)=O)c1 (stereo not given),15.84%,-6.953%
Cc1cc(NCC(=O)N(C)C)c(C(N)=O)cc1F,-3.114%,-2.727%
CSc1nc2ccsc2c(=O)n1CC(=O)N(C)c1ccccc1,-,1.405%
COCCc1noc(CN2CCCC2Cn2nc(C)nc2C)n1 (stereo not given),-62.69%,-19.69%
O=C(O)C(F)(F)F.[H][C@@]12CCN(c3ncccn3)[C@@]1([H])CCN2S(=O)(=O)c1cccs1,-,-2.844%
CN(C)Cc1nn(C)c2c1CCN(C(=O)CC1CC1)C2.O=C(O)C(F)(F)F,-64.9%,-23.26%
CCN(CC(O)c1ccc(C)cc1)C(=O)NC(C)C (stereo not given),8.211%,-1.715%
CN(C)c1ccc(CCCNC(=O)Nc2ccc(C#N)cc2)cc1,-,17.2%
COc1ccccc1CN(C)C(=O)CN1C(=O)OC[C@@H]1c1ccccc1,2.345%,-18.42%
Cc1ccc(CN2CCN(c3ncccc3Cl)CC2CCO)cc1 (stereo not given),19.38%,-44.73%
O=C(O)C(F)(F)F.O=C(O)C(F)(F)F.O=C(O)C(F)(F)F.O=C(O)c1c(-c2cncnc2)ncc2c1CCN(Cc1cccnc1)C2,-2.198%,16.36%
COCc1nc(C(=O)N2CCCC(n3cccn3)C2)cs1 (stereo not given),67.19%,12.03%
CCN1CCCCC1C(=O)N1CCN(C(=O)OC)CC1 (stereo not given),21.11%,-4.361%
Cc1cc(C(=O)N2CCN(C(=O)CCC3CCCCC3)CC2)n(C)n1,17.5%,19.67%
Cc1cc(C)n(CCNCc2cc(-c3ccc(Cl)cc3)c[nH]c2=O)n1,-2.359%,-9.488%
c1cncc(CN2CCc3ncnc(NCCc4c[nH]cn4)c3CC2)c1,-,-9.102%
[H][C@@]12CCCC[C@@]1([H])CN(Cc1nc(-c3ccsc3)oc1C)CC2,-,-16.39%
CN(Cc1ccco1)C(=O)CN1CCCCC1Cn1cncn1 (stereo not given),-9.563%,3.865%
[H][C@]12CC[C@]([H])(CN(C(=O)Cc3c(F)cccc3Cl)C1)N(CCOC)C2=O,6.683%,9.21%
Cc1nc(C)n(CC2CCCN(CCCOc3ccccc3)C2)n1 (stereo not given),-,0.9488%
CNC(=O)c1cc2c(nc1N(C)C)CCN(S(=O)(=O)N(C)C)CC2.O=C(O)C(F)(F)F,-1.194%,-6.486%
Cc1ccc(-c2nc(CN3CCn4c(C)nnc4C3)co2)cc1,-23.96%,-22.57%
CCc1nc(C)c(C(=O)N2C[C@@H](C(=O)O)[C@H](C3CC3)C2)s1,-20.33%,9.959%
C=C(C)CN(CC)Cc1nc(C2CC2)no1,1.671%,11.73%
Cc1csc(N2CCCN(c3cc(C)nc(C)c3C#N)CC2)n1,-,14.71%
CCn1cc(CN2CCCN(C(=O)CCN3CCCC3=O)CC2)cn1,-11.62%,-0.05321%
Cc1oc(-c2ccsc2)nc1CC(=O)NCCCS(C)(=O)=O,-15.14%,-22.77%
O=C(O)C(F)(F)F.[H][C@]12CCN(C(=O)c3ccncc3F)[C@@]1([H])CC[C@H](COCC)O2,10.61%,-5.077%
Cc1ccc(CCNC(=O)N2CCCC(Cc3nccn3C)C2)cn1 (stereo not given),19.12%,3.354%
CCOC1CCCN(C(=O)c2[nH]nc(C3CC3)c2Br)C1 (stereo not given),17.32%,9.288%
Cc1ccccc1OC1CCN(S(=O)(=O)c2c(C)n[nH]c2C)CC1,15.86%,-3.175%
CCCc1cc(C(=O)NCCN2C(=O)c3ccccc3C2=O)[nH]n1,16.08%,18.71%
Cc1ccc(C(=O)N(C)Cc2ccc3c(c2)OCCO3)c(=O)[nH]1,-,-13.81%
CCC(C)(C)NCc1nc(C(C)(C)NC(=O)OC(C)(C)C)no1,7.108%,3.752%
COC(=O)CN(C(=O)c1ccc(-n2ccnc2)cc1)C1CCCC1,-24.62%,-0.7649%
CCCc1nc(NCCCn2cccn2)c2c(n1)c(C)nn2CC,-,-4.276%
[H][C@@]12CC[C@H](Oc3cccc(F)c3)[C@]1([H])CN(C(=O)COCCOC)C2,-16%,-5.396%
CN(c1nccc(-c2cnc3sccn3c2=O)n1)C1CCCCC1,7.787%,8.874%
CCCn1ccnc1CNC(=O)C1COc2cc(OC)ccc2C1 (stereo not given),0.5206%,80.42%
Cc1cc(C)n(C2CCCN(C(=O)c3c(C)noc3C)C2)n1 (stereo not given),17.02%,-2.011%
O=C(O)C(F)(F)F.O=C(O)C(F)(F)F.[H][C@@]12OCCN(c3nnc(C)s3)[C@@]1([H])CC[C@@H]2OCc1ccccn1,-4.798%,-60.54%
COCCCN(CCOC)Cc1nc2c(cnn2C)c(=O)[nH]1,-19.48%,18.48%
O=S(=O)(NCCCn1ccc2ccccc21)N1CCCCC1,-,-33.51%
O=C(CCN1CCOCC1)NC1CCCN(CC2CCCCC2)C1 (stereo not given),-7.627%,10.68%
CC(CO)NCc1csc2c1CCCC2 (stereo not given),16.54%,-13.54%
[H][C@@]12CCCO[C@]1([H])[C@H](NC(=O)CC1CC1)CN(Cc1nccs1)C2,22.22%,-17.91%
Cc1c(S(=O)(=O)NC2CC2)cc2c(C)cc(=O)n3c2c1CCC3,-,-8.649%
CCCS(=O)(=O)CC(=O)Nc1ccsc1,-,-121.5%
Cc1ccc(SCC(=O)NS(=O)(=O)c2ccc3c(c2)OCCO3)cc1,-,0.4332%
COCCC1(C(=O)O)CCN(c2cc(C)c3ccccc3n2)CC1,-,-15.66%

Repeated from the top, 3 entries:

structure,Mtb growth Cornell,Mtb heat-shock
Cc1cc(C)n(C2CCN(c3ncnc4sc5c(c34)CCNC5)C2)n1 (stereo not given),11.06%,-20.26%
COc1ccnc(N2CCC(=O)N(CC3CC3)C(C(C)C)C2)n1 (stereo not given),7.668%,-29.84%
CC(=O)NCCCNCc1c(C)nn(CC(C)C)c1N(C)C,2.619%,9.275%